Measurements reported in PubChem BioAssay AID504786 (Drosophila RNAi Screening Center, 2011)

Test: 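Positive regulators of HIF-driven reporter output in Drosophila cells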 (primary screen)
Cell system: Drosophila S2 cells with a stable HIF luciferase reporter
Reagent: long dsRNA against Drosophila genes, about 0.2 µg dsRNA per well of a 384-well plate
Timing: three days of knock-down, then 20 h of DFO before reading
Challenge: desferrioxamine (DFO) at 100 µM, an iron chelator that mimics hypoxia, for 20 h
Read-out: 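HIF reporter luminescence in cells given 100 µM DFO for 20 h, using the mouse ldh-a hypoxia-response element, scored as per-plate z-scores; higher means greater loss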
Scale: z-score: higher = stronger loss of HIF reporter signal
The screen tested about 21,000 reagents; below is an unselected part of those that have a named target and a result. 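Primary screen; positive scores mean lost reporter signal, so the sign may be inverted from the usual convention.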 Names joined by + are all predicted targets of the reagent.

| gene | DRSC id | z-score, replicate 1 | z-score, replicate 2 | z-score, replicate 3 | z-score, replicate 4 |
| --- | --- | --- | --- | --- | --- |
| Grl62a | DRSC07963 | -0.3 | -0.5 | – | – |
| rdx | DRSC14526 | 2.5 | 3.4 | – | – |
| rdx | DRSC16580 | 2 | 1.3 | – | – |
| CG13203 | DRSC06327 | 0 | -0.5 | – | – |
| Vta1 | DRSC08604 | -0.4 | -0.5 | -0.1 | 0 |
| SCCRO4 | DRSC10671 | -0.3 | -0.6 | – | – |
| CG34238 | DRSC09040 | -0.3 | -0.4 | – | – |
| CG4168 | DRSC01446 | 0 | 0.1 | – | – |
| CG4168 | DRSC01447 | 0.3 | 0.8 | – | – |
| CG4168 | DRSC01933 | -0.3 | -0.3 | – | – |
| Grip91 | DRSC20249 | 0.2 | 0.5 | – | – |
| LanA | DRSC11207 | -0.1 | 0 | – | – |
| CG10062 | DRSC05960 | -0.2 | -0.4 | – | – |
| CG14096 | DRSC10099 | -0.2 | -0.4 | – | – |
| CG17717 | DRSC18130 | -0.3 | -0.7 | – | – |
| CheB74a | DRSC09503 | -0.3 | -0.2 | – | – |
| CG14722 | DRSC14944 | 0 | 0 | – | – |
| CG3808 | DRSC10377 | 0 | 1 | – | – |
| CG13653 | DRSC14653 | -0.2 | -0.3 | – | – |
| CG5065 | DRSC06912 | -0.2 | -0.6 | – | – |
| Poc1 | DRSC09713 | -0.1 | 0.3 | – | – |
| d-cup | DRSC14846 | 0 | 0.3 | – | – |
| CG13284 | DRSC02256 | -0.3 | -0.3 | – | – |
| NC2alpha | DRSC04059 | -0.4 | -0.5 | – | – |
| Or33c | DRSC03388 | -0.1 | -0.1 | – | – |
| CG17242 | DRSC00493 | -0.4 | -0.1 | – | – |
| CG32036 | DRSC10362 | -0.3 | 0 | – | – |
| CG13445 | DRSC09992 | 0.3 | -0.2 | – | – |
| Schip1 | DRSC02851 | 0 | -0.3 | – | – |
| CG13527 | DRSC04169 | -0.4 | -0.7 | – | – |
| Hml | DRSC11183 | -0.3 | -0.1 | – | – |
| CG13492 | DRSC04137 | -0.2 | -0.5 | – | – |
| l(1)10Bb | DRSC20346 | 3.1 | 3.8 | – | – |
| Ir10a | DRSC18891 | -0.5 | -0.2 | – | – |
| Ir10a | DRSC19478 | -0.1 | -0.1 | – | – |
| Ir10a | DRSC19479 | -0.1 | -0.5 | – | – |
| Eip75B | DRSC11161 | 0 | 0.8 | – | – |
| CG8929 | DRSC07298 | 5.1 | 3.8 | – | – |
| gas | DRSC04521 | -0.3 | -0.2 | – | – |
| CG31460 | DRSC14370 | -0.4 | -0.5 | – | – |
| Sas-4 | DRSC12505 | -0.3 | 0 | – | – |
| TpnC73F | DRSC11307 | -0.1 | -0.4 | – | – |
| Acbp4 | DRSC11023 | -0.2 | -0.6 | – | – |
| CG42258 | DRSC19741 | -0.1 | 0.2 | – | – |
| CG42258 | DRSC19783 | -0.3 | -0.1 | – | – |
| CG7065 | DRSC18420 | 5.7 | 3.6 | – | – |
| CG6761 | DRSC10705 | 0 | -0.1 | – | – |
| UQCR-6.4 | DRSC06454 | -0.1 | 0.1 | – | – |
| mus101 | DRSC19388 | -0.1 | 0.5 | – | – |
| Rsph1 | DRSC02864 | -0.2 | -0.1 | – | – |
| CG7728 | DRSC10907 | -0.3 | -0.1 | – | – |
| ssp3 | DRSC02669 | -0.2 | -0.2 | – | – |
| ssp3 | DRSC02670 | -0.2 | -0.3 | – | – |
| CG14632 (retired record) | DRSC17942 | -0.3 | -0.7 | – | – |
| CG7550 | DRSC10875 | -0.3 | -0.3 | – | – |
| TrpA1 | DRSC10544 | -0.2 | -0.3 | – | – |
| Pfdn1 | DRSC02325 | -0.4 | -0.2 | – | – |
| CG17134 | DRSC02583 | -0.1 | 0.1 | – | – |
| E(spl)m7-HLH | DRSC16696 | -0.5 | -0.5 | – | – |
| Cap-H2 | DRSC14908 | -0.3 | -0.3 | – | – |
| CG15747 | DRSC19713 | -0.1 | 0 | – | – |
| CG8516 | DRSC16437 | -0.3 | -0.4 | – | – |
| Ir62a | DRSC08250 | -0.2 | -0.3 | – | – |
| CG3430 | DRSC02713 | -0.3 | -0.2 | – | – |
| CG33474 | DRSC05218 | -0.2 | 0 | – | – |
| CG8501 | DRSC07198 | -0.1 | -0.3 | – | – |
| PPO1 | DRSC05929 | -0.3 | -0.3 | – | – |
| Gr39a | DRSC01841 | 1.5 | 0.8 | – | – |
| Gr39a | DRSC01842 | 1.2 | 0.3 | – | – |
| CG4045 | DRSC18518 | -0.3 | -0.3 | – | – |
| CG17294 | DRSC02596 | -0.1 | 0 | – | – |
| otp | DRSC04050 | -0.5 | -0.9 | – | – |
| otp | DRSC04707 | 0.2 | 0.2 | – | – |
| CG17287 | DRSC06659 | -0.2 | -0.3 | – | – |
| Prosalpha4T2 | DRSC04643 | -0.1 | -0.4 | – | – |
| CG30031 + deltaTry + CG30025 + 1 more | DRSC21262 | -0.3 | -0.1 | – | – |
| Rab19 | DRSC11260 | -0.3 | -0.1 | – | – |
| CG9953 | DRSC11106 | -0.3 | -0.4 | – | – |
| Jon25Bii | DRSC03114 | -0.5 | -0.7 | – | – |
| Rh3 | DRSC16822 | -0.1 | -0.1 | – | – |
| CG18265 | DRSC10310 | -0.1 | 0.6 | – | – |
| Reps | DRSC02940 | -0.4 | -0.4 | – | – |
| Rpn13 | DRSC06379 | 0.6 | 0.5 | – | – |

5 of these entries, reformatted.
gene	DRSC id	z-score, replicate 1	z-score, replicate 2	z-score, replicate 3	z-score, replicate 4
Grl62a	DRSC07963	-0.3	-0.5		
rdx	DRSC14526	2.5	3.4		
rdx	DRSC16580	2	1.3		
CG13203	DRSC06327	0	-0.5		
Vta1	DRSC08604	-0.4	-0.5	-0.1	0
